The other results are listed elsewhere or left out. Only a few entries rise above the background.
What was measured:
Assay in all cases: fluorescence intensity of antibody binding to polysaccharide-coupled beads; higher = stronger binding
[1] = target: pneumococcal polysaccharide Pn2
[2] = target: pneumococcal polysaccharide Pn20A
[3] = target: pneumococcal polysaccharide Pn20B
[4] = target: pneumococcal polysaccharide Pn21
[5] = target: pneumococcal polysaccharide Pn22A
[6] = target: pneumococcal polysaccharide Pn22F
[7] = target: pneumococcal polysaccharide Pn23A
[8] = target: pneumococcal polysaccharide Pn23B
[9] = target: pneumococcal polysaccharide Pn23F
[10] = target: pneumococcal polysaccharide Pn24A
[11] = target: pneumococcal polysaccharide Pn24B
[12] = target: pneumococcal polysaccharide Pn24F
[13] = target: pneumococcal polysaccharide Pn25A
[14] = target: pneumococcal polysaccharide Pn25F
[15] = target: pneumococcal polysaccharide Pn27
[16] = target: pneumococcal polysaccharide Pn28A
[17] = target: pneumococcal polysaccharide Pn28F
[18] = target: pneumococcal polysaccharide Pn29
[19] = target: pneumococcal polysaccharide Pn3
[20] = target: pneumococcal polysaccharide Pn31
[21] = target: pneumococcal polysaccharide Pn32A
[22] = target: pneumococcal polysaccharide Pn32F
[23] = target: pneumococcal polysaccharide Pn33A
[24] = target: pneumococcal polysaccharide Pn33B
[25] = antibody concentration 2337.65 ng/mL
[26] = antibody concentration 12500 ng/mL
[27] = antibody concentration 0.1 ng/mL
[28] = antibody concentration 0.534724 ng/mL
[29] = antibody concentration 2.8593 ng/mL
[30] = antibody concentration 15.2894 ng/mL
[31] = antibody concentration 81.7561 ng/mL
[32] = antibody concentration 437.17 ng/mL

B1: 4-173.2 (protein)
chain 1: QLQLQESGPGLVKPSETLSLTCAVSGGSINSNYWSWIRQPPGKGLDWIGRISGSGGSTDYNPSLKSRVTISTDTSKTQFSLKLRSVTAADTAVYYCGRGSYQIDYWGQGILVTVSS
chain 2: QAALTQPPSMSGSPGQSVTISCTGTSSDIGGYNRVSWYQQYPGKAPKLMIYEVSKRPSGVSDRFSGSKSGNTASLTISGLQAADEADYYCSSYAGSKALFGGGTRLTVL
- fluorescence intensity [1, 25]: 25.8 MFI
- fluorescence intensity [1, 26]: 36 MFI
- fluorescence intensity [2, 27]: 23.5 MFI
- fluorescence intensity [2, 28]: 23.5 MFI
- fluorescence intensity [2, 29]: 22 MFI
- fluorescence intensity [2, 30]: 22 MFI
- fluorescence intensity [2, 31]: 23.5 MFI
- fluorescence intensity [2, 32]: 23.8 MFI
- fluorescence intensity [2, 25]: 38.5 MFI
- fluorescence intensity [2, 26]: 182 MFI
- fluorescence intensity [3, 27]: 25 MFI
- fluorescence intensity [3, 28]: 24 MFI
- fluorescence intensity [3, 29]: 23 MFI
- fluorescence intensity [3, 30]: 24 MFI
- fluorescence intensity [3, 31]: 23.5 MFI
- fluorescence intensity [3, 32]: 26.2 MFI
- fluorescence intensity [3, 25]: 27.5 MFI
- fluorescence intensity [3, 26]: 52.5 MFI
- fluorescence intensity [4, 27]: 20.5 MFI
- fluorescence intensity [4, 28]: 18 MFI
- fluorescence intensity [4, 29]: 19.5 MFI
- fluorescence intensity [4, 30]: 20.5 MFI
- fluorescence intensity [4, 31]: 19.8 MFI
- fluorescence intensity [4, 32]: 20.8 MFI
- fluorescence intensity [4, 25]: 22.5 MFI
- fluorescence intensity [4, 26]: 28.5 MFI
- fluorescence intensity [5, 27]: 22.8 MFI
- fluorescence intensity [5, 28]: 21.5 MFI
- fluorescence intensity [5, 29]: 20 MFI
- fluorescence intensity [5, 30]: 20.5 MFI
- fluorescence intensity [5, 31]: 21.5 MFI
- fluorescence intensity [5, 32]: 21.8 MFI
- fluorescence intensity [5, 25]: 26 MFI
- fluorescence intensity [5, 26]: 79.5 MFI
- fluorescence intensity [6, 27]: 31.2 MFI
- fluorescence intensity [6, 28]: 33 MFI
- fluorescence intensity [6, 29]: 30.5 MFI
- fluorescence intensity [6, 30]: 33.8 MFI
- fluorescence intensity [6, 31]: 31.5 MFI
- fluorescence intensity [6, 32]: 31.8 MFI
- fluorescence intensity [6, 25]: 33.5 MFI
- fluorescence intensity [6, 26]: 44.8 MFI
- fluorescence intensity [7, 27]: 25.2 MFI
- fluorescence intensity [7, 28]: 26 MFI
- fluorescence intensity [7, 29]: 23.8 MFI
- fluorescence intensity [7, 30]: 24.5 MFI
- fluorescence intensity [7, 31]: 24.2 MFI
- fluorescence intensity [7, 32]: 31.5 MFI
- fluorescence intensity [7, 25]: 45.5 MFI
- fluorescence intensity [7, 26]: 67 MFI
- fluorescence intensity [8, 27]: 30 MFI
- fluorescence intensity [8, 28]: 30 MFI
- fluorescence intensity [8, 29]: 29.5 MFI
- fluorescence intensity [8, 30]: 29 MFI
- fluorescence intensity [8, 31]: 29.8 MFI
- fluorescence intensity [8, 32]: 31.2 MFI
- fluorescence intensity [8, 25]: 34.8 MFI
- fluorescence intensity [8, 26]: 47.5 MFI
- fluorescence intensity [9, 27]: 19.2 MFI
- fluorescence intensity [9, 28]: 17.5 MFI
- fluorescence intensity [9, 29]: 18.5 MFI
- fluorescence intensity [9, 30]: 20 MFI
- fluorescence intensity [9, 31]: 18.2 MFI
- fluorescence intensity [9, 32]: 20 MFI
- fluorescence intensity [9, 25]: 26 MFI
- fluorescence intensity [9, 26]: 32.5 MFI
- fluorescence intensity [10, 27]: 16 MFI
- fluorescence intensity [10, 28]: 15.5 MFI
- fluorescence intensity [10, 29]: 16 MFI
- fluorescence intensity [10, 30]: 15.2 MFI
- fluorescence intensity [10, 31]: 15 MFI
- fluorescence intensity [10, 32]: 16.5 MFI
- fluorescence intensity [10, 25]: 17.5 MFI
- fluorescence intensity [10, 26]: 34.5 MFI
- fluorescence intensity [11, 27]: 18 MFI
- fluorescence intensity [11, 28]: 18 MFI
- fluorescence intensity [11, 29]: 17 MFI
- fluorescence intensity [11, 30]: 18 MFI
- fluorescence intensity [11, 31]: 17.2 MFI
- fluorescence intensity [11, 32]: 20 MFI
- fluorescence intensity [11, 25]: 24.5 MFI
- fluorescence intensity [11, 26]: 58.5 MFI
- fluorescence intensity [12, 27]: 18.5 MFI
- fluorescence intensity [12, 28]: 18.5 MFI
- fluorescence intensity [12, 29]: 17 MFI
- fluorescence intensity [12, 30]: 16.5 MFI
- fluorescence intensity [12, 31]: 15.8 MFI
- fluorescence intensity [12, 32]: 18.5 MFI
- fluorescence intensity [12, 25]: 26.5 MFI
- fluorescence intensity [12, 26]: 44.8 MFI
- fluorescence intensity [13, 27]: 24 MFI
- fluorescence intensity [13, 28]: 25 MFI
- fluorescence intensity [13, 29]: 23 MFI
- fluorescence intensity [13, 30]: 22.8 MFI
- fluorescence intensity [13, 31]: 25 MFI
- fluorescence intensity [13, 32]: 26.5 MFI
- fluorescence intensity [13, 25]: 30 MFI
- fluorescence intensity [13, 26]: 37.2 MFI
- fluorescence intensity [14, 27]: 31.5 MFI
- fluorescence intensity [14, 28]: 29.5 MFI
- fluorescence intensity [14, 29]: 30.5 MFI
- fluorescence intensity [14, 30]: 32 MFI
- fluorescence intensity [14, 31]: 31.5 MFI
- fluorescence intensity [14, 32]: 32.5 MFI
- fluorescence intensity [14, 25]: 35.5 MFI
- fluorescence intensity [14, 26]: 47.5 MFI
- fluorescence intensity [15, 27]: 16.2 MFI
- fluorescence intensity [15, 28]: 16.5 MFI
- fluorescence intensity [15, 29]: 17.2 MFI
- fluorescence intensity [15, 30]: 17.5 MFI
- fluorescence intensity [15, 31]: 18.8 MFI
- fluorescence intensity [15, 32]: 20.5 MFI
- fluorescence intensity [15, 25]: 36 MFI
- fluorescence intensity [15, 26]: 200 MFI
- fluorescence intensity [16, 27]: 25.5 MFI
- fluorescence intensity [16, 28]: 27 MFI
- fluorescence intensity [16, 29]: 28 MFI
- fluorescence intensity [16, 30]: 26.8 MFI
- fluorescence intensity [16, 31]: 29 MFI
- fluorescence intensity [16, 32]: 28 MFI
- fluorescence intensity [16, 25]: 30 MFI
- fluorescence intensity [16, 26]: 36.2 MFI
- fluorescence intensity [17, 27]: 29.5 MFI
- fluorescence intensity [17, 28]: 31.5 MFI
- fluorescence intensity [17, 29]: 30 MFI
- fluorescence intensity [17, 30]: 31.5 MFI
- fluorescence intensity [17, 31]: 31.2 MFI
- fluorescence intensity [17, 32]: 30 MFI
- fluorescence intensity [17, 25]: 35.5 MFI
- fluorescence intensity [17, 26]: 80 MFI
- fluorescence intensity [18, 27]: 16 MFI
- fluorescence intensity [18, 28]: 15 MFI
- fluorescence intensity [18, 29]: 16.5 MFI
- fluorescence intensity [18, 30]: 16.2 MFI
- fluorescence intensity [18, 31]: 16 MFI
- fluorescence intensity [18, 32]: 19 MFI
- fluorescence intensity [18, 25]: 26.5 MFI
- fluorescence intensity [18, 26]: 85.5 MFI
- fluorescence intensity [19, 27]: 16 MFI
- fluorescence intensity [19, 28]: 43.5 MFI
- fluorescence intensity [19, 29]: 140 MFI
- fluorescence intensity [19, 30]: 614 MFI
- fluorescence intensity [19, 31]: 3320 MFI
- fluorescence intensity [19, 32]: 8480 MFI
- fluorescence intensity [19, 25]: 9420 MFI
- fluorescence intensity [19, 26]: 9640 MFI
- fluorescence intensity [20, 27]: 14.5 MFI
- fluorescence intensity [20, 28]: 13.8 MFI
- fluorescence intensity [20, 29]: 14 MFI
- fluorescence intensity [20, 30]: 15.5 MFI
- fluorescence intensity [20, 31]: 14.5 MFI
- fluorescence intensity [20, 32]: 16.5 MFI
- fluorescence intensity [20, 25]: 23.2 MFI
- fluorescence intensity [20, 26]: 115 MFI
- fluorescence intensity [21, 27]: 17.5 MFI
- fluorescence intensity [21, 28]: 17 MFI
- fluorescence intensity [21, 29]: 18 MFI
- fluorescence intensity [21, 30]: 19 MFI
- fluorescence intensity [21, 31]: 19 MFI
- fluorescence intensity [21, 32]: 20.2 MFI
- fluorescence intensity [21, 25]: 23.5 MFI
- fluorescence intensity [21, 26]: 45.2 MFI
- fluorescence intensity [22, 27]: 26.5 MFI
- fluorescence intensity [22, 28]: 29 MFI
- fluorescence intensity [22, 29]: 29.5 MFI
- fluorescence intensity [22, 30]: 28.5 MFI
- fluorescence intensity [22, 31]: 29 MFI
- fluorescence intensity [22, 32]: 34.2 MFI
- fluorescence intensity [22, 25]: 44.8 MFI
- fluorescence intensity [22, 26]: 57.8 MFI
- fluorescence intensity [23, 27]: 18 MFI
- fluorescence intensity [23, 28]: 19.5 MFI
- fluorescence intensity [23, 29]: 18.5 MFI
- fluorescence intensity [23, 30]: 15.5 MFI
- fluorescence intensity [23, 31]: 19 MFI
- fluorescence intensity [23, 32]: 21 MFI
- fluorescence intensity [23, 25]: 63.8 MFI
- fluorescence intensity [23, 26]: 656 MFI
- fluorescence intensity [24, 27]: 19 MFI
- fluorescence intensity [24, 28]: 17.5 MFI
